The results in this text go back to paper PMC9205782, “Identifying amyloid-related diseases by mapping mutations in low-complexity protein domains to pathologies” (Nature Structural & Molecular Biology, 2022).

By UniProt entry, the sequences of proteins in these tests, tags left out. Where a name states a change or a piece, a line headed by the entry shows the natural chain unless it says otherwise. Chains listed by the source or under a name are the forms on record and can include a tag or linker.
FUS G191S with N-terminal mCherry (P35637, form named): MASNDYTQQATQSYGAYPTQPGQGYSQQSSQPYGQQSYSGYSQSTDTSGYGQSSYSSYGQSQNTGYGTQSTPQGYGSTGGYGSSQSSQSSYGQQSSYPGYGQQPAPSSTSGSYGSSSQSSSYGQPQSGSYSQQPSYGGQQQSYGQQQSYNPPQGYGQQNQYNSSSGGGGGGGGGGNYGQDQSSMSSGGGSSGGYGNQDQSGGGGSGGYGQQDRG

No constants are given. Whether binding was seen depends on the method and setting. Some results given as binding are weak or reduced against the parent protein; the word gives no strength.

Assay [1] has as its target FUS G191S with N-terminal mCherry (human) (UniProt P35637). In words: X-ray fiber powder diffraction of aggregates; aggregated samples centrifuged, exchanged into water, dried between capillaries; cross-beta pattern; both purified.
Assay [2] shares this target. Put plainly: thioflavin T fluorescence on cooling (reversible aggregation, phase separation); same sample concentrations as the aggregation assay; held at 37 °C, cooled to 4 °C for 60 minutes, warmed back to 37 °C; both purified.

Take “FUS G191S with N-terminal mCherry (from UniProt P35637 1-214) (domain or fragment)”: the binding result in assay [1] and in assay [2] was “binds” throughout.
